# Reference: patent CN113698481A
# Sequences of proteins named here, by UniProt entry; tags and fusion partners are left off. A change or cut given only in a name is not applied to a line headed by its entry.
# UniProt P01225: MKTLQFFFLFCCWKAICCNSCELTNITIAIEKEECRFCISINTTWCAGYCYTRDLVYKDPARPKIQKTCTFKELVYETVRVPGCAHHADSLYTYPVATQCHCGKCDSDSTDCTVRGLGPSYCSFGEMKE
# These are yes or no findings as the source states them, for the method shown. Some results given as binding are weak or reduced against the parent protein; the word gives no strength.
# Target: 促卵泡激素(FSH) (human) (UniProt P01225)
# Experiment: ELISA with purified His-tagged VHH (FSH coating not described)
row,binding,Binder
1,binds,SEQ ID NO 6 (VHH) VHH: QVQVVESGGGLVQPGGSLRLSCAASGRTVSSHAMGWFRQAPGEEREAVAAIMWSGDSTYYANAVKGRFTISRDNAKNTVYLQMNSLKPEDTAVYYCAARLQEEGWWDYWGQGTQVTVSS
2,binds,SEQ ID NO 7 (VHH) VHH: QVQLVESGGGLVQAGGSLRLSCVASGRTFSSYDMGWFRQAPGEEREAVAAINWSGGSTYYADSVKGRFTISSDNAKNTVYLQMNNLKPEDTAVYYCAARQVPGWWDYWGQGTQVTVSS

# Second part, the binder before the results:
row,Binder,binding
1,SEQ ID NO 3 (VHH) VHH: QVQVAESGGGLVQSGGSMNLSCTASGNLFSVDAMGWFRQAPGEEREAVAAIMWSGDSTYYANAVKGRFTISRDNAKNTVYLQMNSLKPEDTAVYYCAARLQEEGWWDYWGQGTQVTVSS,binds
2,SEQ ID NO 5 (VHH) VHH: QVQLVESGGGLAQAGGSLRLSCAASGRTASGYAMGWFRQAPGKEREAVAAIMWSGGSTYYADSVKGRFTISRDNAKNTVYLQMNSLKTEDTAVYYCAARTDGSGWWDYWGQGTQVTVSS,binds
3,SEQ ID NO 4 (VHH) VHH: QVRLVESGGGLVQPGGSLRLSCTASGGTFDRYNVAWFRQAPGEEREAVASIMWSGDNTYYANSVKGRFTISRDNAKNTVYLQMNSLKPEDTAVYYCAARIQEQGWWDYWGQGTQVTVSS,binds
